Source: PubChem BioAssay AID1259405 (NCATS, 2018)
Assay: 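Silenced genes that increase secreted GFP made by CHO cells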 (primary screen). Cells: Chinese hamster CHO-K1 ovary cells with stable secreted eGFP expression. Knock-down reagent: single siRNA against mouse genes, 0.8 pmol siRNA per well (2 µl of 400 nM stock). Duration: 3 days. Measurement: 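Percent of the per-plate non-targeting control median for intracellular GFP per well by laser scanning cytometry and for cell viability by ATP luminescence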. Reading the numbers: GFP, % of control: higher = more GFP per well, higher productivity. Hit rule: 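a knock-down is called active if GFP reaches 120% or more of non-targeting control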.
Here is one part, drawn at random, of about 50,000 reagents. About 4,000 of all reagents (8%) were called active. 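Mouse siRNA library applied to hamster cells; one well for each siRNA.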 The numbers tell different reagents against one gene apart. Further read-outs or replicates are left out here. Reagent sequences are not shown.

GFP, % of control, by gene and reagent
Npy6r (neuropeptide Y receptor Y6): #1 41.4 inactive; #2 66.6 inactive; #3 43.5 inactive
Evx1 (even-skipped homeobox 1): #1 50.2 inactive; #2 80.3 inactive; #3 127 active
Hunk (hormonally upregulated Neu-associated kinase): #1 64.3 inactive
Myg1 (melanocyte proliferating gene 1): #1 95.7 inactive; #2 84.3 inactive; #3 68.6 inactive
Il10ra (interleukin 10 receptor, alpha): #1 86 inactive; #2 113 inactive; #3 50.7 inactive
Or5a3 (olfactory receptor family 5 subfamily A member 3): #1 83.5 inactive; #2 75.3 inactive; #3 83.1 inactive
Plekha8 (pleckstrin homology domain containing A8): #1 101 inactive; #2 116 inactive; #3 45.7 inactive
Kremen1 (kringle containing transmembrane protein 1): #1 112 inactive; #2 65.4 inactive; #3 100 inactive
Or1o1 (olfactory receptor family 1 subfamily O member 1): #1 58.3 inactive; #2 69.4 inactive; #3 158 active
Pnpla2 (patatin-like phospholipase domain containing 2): #1 91.7 inactive; #2 37.8 inactive; #3 52.9 inactive
Or4b12 (olfactory receptor family 4 subfamily B member 12): #1 76.6 inactive; #2 87.4 inactive; #3 67.9 inactive
Mrto4 (mRNA turnover 4, ribosome maturation factor): #1 95.5 inactive; #2 96.5 inactive; #3 45.8 inactive
Cts3 (cathepsin 3): #1 77.5 inactive; #2 48.4 inactive; #3 85.1 inactive
Ipo13 (importin 13): #1 89.5 inactive; #2 116 inactive; #3 79.7 inactive
Smr2 (submaxillary gland androgen regulated protein 2): #1 57.8 inactive; #2 69.3 inactive; #3 35.4 inactive
Zfp28 (zinc finger protein 28): #1 47.6 inactive; #2 118 inactive
Vmn1r211 (vomeronasal 1 receptor 211): #1 42.4 inactive; #2 85.3 inactive; #3 91.8 inactive
Rps19 (ribosomal protein S19): #1 47.8 inactive; #2 29.1 inactive; #3 111 inactive
Maged1 (MAGE family member D1): #1 28.2 inactive; #2 74.5 inactive; #3 111 inactive
Fcer1a (Fc receptor, IgE, high affinity I, alpha polypeptide): #1 98.1 inactive; #2 76.5 inactive; #3 74.2 inactive
Lox (lysyl oxidase): #1 149 active; #2 63.8 inactive; #3 56.2 inactive
Crmp1 (collapsin response mediator protein 1): #1 51 inactive; #2 50.6 inactive; #3 137 active
Eif1ad: #1 92.2 inactive; #2 167 active; #3 100 inactive
Tceal5 (transcription elongation factor A (SII)-like 5): #1 78.9 inactive; #2 95 inactive; #3 73.1 inactive
Arhgef1 (Rho guanine nucleotide exchange factor 1): #1 80.2 inactive; #2 92.7 inactive; #3 47.3 inactive
Atp7b (ATPase, copper transporting, beta polypeptide): #1 32.5 inactive; #2 59.5 inactive; #3 77.3 inactive
Slc37a3: #1 150 active; #2 62.5 inactive; #3 85.5 inactive
Hmgb4 (high-mobility group box 4): #1 77.7 inactive; #2 57.4 inactive; #3 64.3 inactive
Dnajb2 (DnaJ heat shock protein family (Hsp40) member B2): #1 86.5 inactive; #2 52.1 inactive; #3 46.7 inactive

6 entries from above, ordered by “GFP, % of control”, ascending:
gene	siRNA no.	GFP, % of control	Call
Tceal5 (transcription elongation factor A (SII)-like 5)	3	73.1	inactive
Tceal5 (transcription elongation factor A (SII)-like 5)	1	78.9	inactive
Arhgef1 (Rho guanine nucleotide exchange factor 1)	1	80.2	inactive
Tceal5 (transcription elongation factor A (SII)-like 5)	2	95	inactive
Eif1ad	3	100	inactive
Eif1ad	2	167	active
